{"source": "paper PMC7819943", "about": "“Rice protein-binding microarrays: a tool to detect cis-acting elements near promoter regions in rice”", "note": "This is one part of the list.", "data": [{"target": "T1, OsSMF1 (Oryza sativa, UniProt Q6ZLB0 1-436)", "T1 sequence": "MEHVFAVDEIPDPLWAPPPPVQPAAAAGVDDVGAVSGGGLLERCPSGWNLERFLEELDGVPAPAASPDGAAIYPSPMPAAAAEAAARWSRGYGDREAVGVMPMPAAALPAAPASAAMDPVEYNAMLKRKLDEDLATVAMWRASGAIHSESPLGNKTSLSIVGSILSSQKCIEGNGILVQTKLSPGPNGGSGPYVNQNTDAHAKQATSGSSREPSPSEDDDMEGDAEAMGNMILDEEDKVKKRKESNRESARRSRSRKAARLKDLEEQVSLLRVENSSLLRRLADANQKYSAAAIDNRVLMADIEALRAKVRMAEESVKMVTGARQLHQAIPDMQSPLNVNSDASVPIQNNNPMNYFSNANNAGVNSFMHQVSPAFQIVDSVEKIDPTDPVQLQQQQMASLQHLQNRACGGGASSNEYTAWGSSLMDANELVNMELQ", "test": "protein-binding microarray (RPBM); PBS, 2% BSA, 51.3 ng/ul salmon testes DNA, 50 uM zinc acetate, 200 nM TF, 25 C, 1 h; high values mean tight binding", "conditions": "protein: recombinant; tags: N-terminal polyhistidine and DsRed monomer fusion (pET32a); chain copies: 2; label: CyDye5-dUTP incorporated in the synthesized complementary strand; 3' TTTTT single-stranded linker to array surface; dsDNA, one strand shown", "method_in_brief": "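Transcription factors were each fused at the N-terminus to a polyhistidine tag plus DsRed and expressed in E. coli BL21-CodonPlus before Ni–NTA purification. Binding to a double-stranded custom Agilent array was carried out with 200 nM protein at 25 °C for 1 h in PBS, 2% BSA, salmon testes DNA and 50 µM zinc acetate. The binding signal is per-feature fluorescence intensity, in arbitrary units, on an Axon 4000B scanner.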", "values": [{"sequence": "AACACACAGTCGTGGCAAATCCTAATCTGCAATCTGCAAGCGGAGTCACCTAGTGCAG", "binding signal": "4660 fluorescence intensity (a.u.)"}, {"sequence": "ACCGAAATTCAGTCATGCAGATGTGGATTCAGCCACATTTCGGAGTCACCTAGTGCAG", "binding signal": "3920 fluorescence intensity (a.u.)"}, {"sequence": "CATTTCGGTAGCGTTGGCTTTGTTTAGTTTGATGTCTTTACGGAGTCACCTAGTGCAG", "binding signal": "3330 fluorescence intensity (a.u.)"}, {"sequence": "GGGGCCCACAGGCCCAACCCAACGCATCCGATTGAACGTTCGGAGTCACCTAGTGCAG", "binding signal": "3440 fluorescence intensity (a.u.)"}, {"sequence": "GTAAACCGCACCGTGACGCGACGCGACCCCGAAGCCGTTCCGGAGTCACCTAGTGCAG", "binding signal": "4790 fluorescence intensity (a.u.)"}, {"sequence": "CCTTAATGTTCAACGTGTCATGCATTAGTGAAATAATAGCCGGAGTCACCTAGTGCAG", "binding signal": "3610 fluorescence intensity (a.u.)"}, {"sequence": "TGGCGACGGGATTCGTCGTCGTCGTCGCCATGTGTCAGCTCGGAGTCACCTAGTGCAG", "binding signal": "5220 fluorescence intensity (a.u.)"}, {"sequence": "GGGTCCAGCGCAGGAATCCCATTCGATTGATGACGTGGCGCGGAGTCACCTAGTGCAG", "binding signal": "35700 fluorescence intensity (a.u.)"}, {"sequence": "GTACCTGTTTCAAGAACACAATGATGAGCTGTACCATCATCGGAGTCACCTAGTGCAG", "binding signal": "3170 fluorescence intensity (a.u.)"}, {"sequence": "GGGCCTACCCTTTATTGCATCACTCGACTCCAACTATAGTCGGAGTCACCTAGTGCAG", "binding signal": "3980 fluorescence intensity (a.u.)"}, {"sequence": "ACCGAGTAAATTGTTTACTATCGACAGTTACACGTTACCACGGAGTCACCTAGTGCAG", "binding signal": "3260 fluorescence intensity (a.u.)"}, {"sequence": "CGTCCAAGCACGCCGCCGCCTCGTCGTCCTCGCTGGCGGACGGAGTCACCTAGTGCAG", "binding signal": "3290 fluorescence intensity (a.u.)"}, {"sequence": "AGACGAACATCTTCCCCTATCGCCGCCGTGTCAATGTCACCGGAGTCACCTAGTGCAG", "binding signal": "4370 fluorescence intensity (a.u.)"}, {"sequence": "TCTAACGACAAGTTGTGATGACGGAGAGGGTGACAACAGCCGGAGTCACCTAGTGCAG", "binding signal": "3820 fluorescence intensity (a.u.)"}, {"sequence": "TCCTGCAACATCCTGATCTCCTCTAGAAGTAAGCAACTCGCGGAGTCACCTAGTGCAG", "binding signal": "27700 fluorescence intensity (a.u.)"}, {"sequence": "ATCAACAGAAGAGAGAAGCTCCTCAATGTTTCCTGCACCGCGGAGTCACCTAGTGCAG", "binding signal": "15300 fluorescence intensity (a.u.)"}, {"sequence": "AAATTTAGGGTTACATAGTGATCAATGAATGCGTCATGAACGGAGTCACCTAGTGCAG", "binding signal": "4590 fluorescence intensity (a.u.)"}, {"sequence": "ACCGGAGTCACTCAAACATGAATTCATTGGCAATCACATTCGGAGTCACCTAGTGCAG", "binding signal": "3820 fluorescence intensity (a.u.)"}, {"sequence": "ACCTACAGGCACGCGGCACGCCATGGCAAGTGCAATATTGCGGAGTCACCTAGTGCAG", "binding signal": "3310 fluorescence intensity (a.u.)"}, {"sequence": "TTTTAGTTTTCCTCGATTAATTAATACTGTCTTTAAATCTCGGAGTCACCTAGTGCAG", "binding signal": "23300 fluorescence intensity (a.u.)"}, {"sequence": "CAGGCCTATCTTTGACAGATCAGATTGTCTGATATTCTGACGGAGTCACCTAGTGCAG", "binding signal": "3270 fluorescence intensity (a.u.)"}, {"sequence": "TTGATGTATCAAGCATGGTGACGTTACGTATTATGATTGGCGGAGTCACCTAGTGCAG", "binding signal": "4900 fluorescence intensity (a.u.)"}, {"sequence": "ACCCTGATCGCAAGTCATCTCATCAACCACTGCTACACGTCGGAGTCACCTAGTGCAG", "binding signal": "3320 fluorescence intensity (a.u.)"}, {"sequence": "TCTCCAGCACCTTGGAACGGGGCTTCGGCCCGAACCGCGGCGGAGTCACCTAGTGCAG", "binding signal": "27000 fluorescence intensity (a.u.)"}, {"sequence": "CCGGGCGCTCCTCTCGTTTCCTGGCCCATCATCCGTCACCCGGAGTCACCTAGTGCAG", "binding signal": "3300 fluorescence intensity (a.u.)"}, {"sequence": "CCGTGTCCAAGTCCACAATACAGGTCAGAAAAGCTCGTTTCGGAGTCACCTAGTGCAG", "binding signal": "3300 fluorescence intensity (a.u.)"}, {"sequence": "TGCCCAAGTCGGTGACTTTGATTGCGCCGCGTGCCTCGCCCGGAGTCACCTAGTGCAG", "binding signal": "3970 fluorescence intensity (a.u.)"}, {"sequence": "CGAATAGCCGCGACCTACGAGGACACCACGTCACGACTTACGGAGTCACCTAGTGCAG", "binding signal": "8200 fluorescence intensity (a.u.)"}, {"sequence": "GATGGCAAGTGCATGGCATGGAAGGGGCCGGTCCATTGATCGGAGTCACCTAGTGCAG", "binding signal": "19300 fluorescence intensity (a.u.)"}, {"sequence": "GTAGGGAACGTGGCTGAAGATGTTCCCACCATTGCTCCAGCGGAGTCACCTAGTGCAG", "binding signal": "3550 fluorescence intensity (a.u.)"}, {"sequence": "ATGTTTAATCACACGTAATCAGCTGCGGCGGCACCGGAGCCGGAGTCACCTAGTGCAG", "binding signal": "6530 fluorescence intensity (a.u.)"}, {"sequence": "TACGGGTTAGGGTTTGGGGTTGGGGTCAAGGTAGGAGGGGCGGAGTCACCTAGTGCAG", "binding signal": "3500 fluorescence intensity (a.u.)"}, {"sequence": "TGTGCCTAGATAGCGTCGTCAGCCGCTGCCATTGCTGTAACGGAGTCACCTAGTGCAG", "binding signal": "3140 fluorescence intensity (a.u.)"}, {"sequence": "ACTTTTACTTTTGTTCCAGTATTCGCTTAAGGATAGGAATCGGAGTCACCTAGTGCAG", "binding signal": "12400 fluorescence intensity (a.u.)"}, {"sequence": "CCCCTCCGCCTCGTCCCCATCGGCCACTGCCACCACCGCCCGGAGTCACCTAGTGCAG", "binding signal": "3700 fluorescence intensity (a.u.)"}, {"sequence": "GCCAATCTGTGGGTGCCACGTCACTTTTCACACAGAGGCACGGAGTCACCTAGTGCAG", "binding signal": "14300 fluorescence intensity (a.u.)"}, {"sequence": "TTCATAGGAAAGGAGCTGACTCGCCGCCACCGATCGCCAACGGAGTCACCTAGTGCAG", "binding signal": "3170 fluorescence intensity (a.u.)"}, {"sequence": "GAGGGTGAGTTGGACTGACATGCGGGGCCCACGTGGGTCCCGGAGTCACCTAGTGCAG", "binding signal": "5560 fluorescence intensity (a.u.)"}, {"sequence": "ATCGTGCTAGTATGACTCGTCGCCAAGCCATGCTTGGGCCCGGAGTCACCTAGTGCAG", "binding signal": "4570 fluorescence intensity (a.u.)"}, {"sequence": "GATCTGTCACTGTATGGAATGATGCAAAGCTGCTGCTGATCGGAGTCACCTAGTGCAG", "binding signal": "32000 fluorescence intensity (a.u.)"}, {"sequence": "TTCCCCGCCCGCGCACTTGGAAACCTAACCGTCCTCGGTGCGGAGTCACCTAGTGCAG", "binding signal": "3840 fluorescence intensity (a.u.)"}, {"sequence": "ATACATGTTAGGGTGACACACCACTGCTTGCCCGTGTGTTCGGAGTCACCTAGTGCAG", "binding signal": "4940 fluorescence intensity (a.u.)"}]}]}
